In the supplement of paper PMC8866396 one finds IL-6-GFP fluorescence data, which are given here for 22 compounds.

± gives the standard deviation of the averaged measurements. Some of the results follow. Repeats in this data set agree poorly, so a single value says little.

This assay has as its system IL-6-GFP PC-9. The assay can be described thus: IL-6-GFP fluorescence relative to DMSO control (fraction of control); higher = more IL-6-GFP expression. As to conditions: compound concentration: 10 uM; treatment time: 48 h. On the procedure: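 IL-6-GFP-overexpressing PC-9 and PC-9GR EGFR-mutant lung cancer cells (3000 cells/well, 96-well) were treated for 48 h with each compound of the Selleck L2000 library at 10 uM. IL-6-GFP fluorescence was read on a high-content screening system, and viability by CCK-8 absorbance on a parallel plate set. Each value was normalised as compound well / DMSO control well; two independent replicates.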

`CCS(=O)(=O)N1CC(CC#N)(n2cc(-c3ncnc4[nH]ccc34)cn2)C1.O=P(O)(O)O` [Baricitinib phosphate] registered an IL-6-GFP fluorescence of 0.961 ± 0.034.
`CC1(C)SC2C(NC(=O)C(c3ccccc3)S(=O)(=O)[O-])C(=O)N2C1C(=O)[O-].[Na+].[Na+]` (configuration not stated) [Sulbenicillin Sodium]: the IL-6-GFP fluorescence was 0.947 ± 0.077.
In the case of `CC(=O)O.CCNC(=O)C1CCCN1C(=O)C(CCCNC(=N)N)NC(=O)C(CC(C)C)NC(=O)C(CC(C)C)NC(=O)C(Cc1ccc(O)cc1)NC(=O)C(CO)NC(=O)C(Cc1c[nH]c2ccccc12)NC(=O)C(Cc1c[nH]cn1)NC(=O)C1CCC(=O)N1` (configuration not stated) [Leuprolide Acetate], the IL-6-GFP fluorescence was 0.761 ± 0.12.
In the case of `C=CC1=C(C)c2cc3nc(cc4[nH]c(cc5[nH]c(cc1n2)c(C)c5C=C)c(C)c4CCC(=O)O)C(CCC(=O)O)=C3C` [Protoporphyrin IX], the IL-6-GFP fluorescence turned out to be 0.534 ± 0.16.
`CC1(C)C2CCC1(C)C(O)C2` (configuration not stated) [Borneol] displayed an IL-6-GFP fluorescence of 0.834 ± 0.31.
The compound `COc1c2occc2c(OC)c2c(=O)cc(C)oc12` [Khellin] came in with an IL-6-GFP fluorescence of 0.734 ± 0.08.
To `C/C=C1/C2C=C(C)CC1(N)c1ccc(=O)[nH]c1C2` (single isomer, unassigned; (-)) [(-)-Huperzine A (HupA)] belongs 1.06 ± 0.44; to `O=C(O)CCCCC1CCSS1` (stereo not drawn) [(+)-α-Lipoic acid], 0.893 ± 0.028; to `Cl.O=C1NCC2(CCN(CCc3ccccc3)CC2)O1` [Fenspiride HCl], 0.962 ± 0.087.
`CC1(C(=O)O)CCC2(C)CCC3(C)C(=CC(=O)C4C5(C)CCC(OC6OC(C(=O)O)C(O)C(O)C6OC6OC(C(=O)O)C(O)C(O)C6O)C(C)(C)C5CCC43C)C2C1.N` (configuration not stated) [Ammonium Glycyrrhizinate] displayed an IL-6-GFP fluorescence of 0.806 ± 0.26.
In the case of `CC(C(=O)O)c1ccc2c(c1)CC(=O)c1ccccc1S2` (configuration not stated) [Zaltoprofen], the IL-6-GFP fluorescence is 0.866 ± 0.29.
For `CC(C)C1C(=O)NC(CCCNC(=N)N)C(=O)NCC(=O)NC(CC(=O)O)C(=O)NC(Cc2ccccc2)C(=O)N1C.O=C(O)C(F)(F)F` (configuration not stated) the value was 0.844 ± 0.021; for `Cc1coc2c1C(=O)C(=O)c1c-2ccc2c1CCCC2(C)C` [Tanshinone IIA], 0.858 ± 0.047.
For `CC(Oc1cc(-c2cnn(C3CCNCC3)c2)cnc1N)c1c(Cl)ccc(F)c1Cl` (configuration not stated) the value was 0.983 ± 0.21; for `CN(C)c1nc(N(C)C)nc(N(C)C)n1` [Altretamine], 0.712 ± 0.28; for `CC1CC2C3CCC4=CC(=O)C=CC4(C)C3(F)C(O)CC2(C)C1(O)C(=O)CO` (configuration not stated) [Dexamethasone (DHAP)], 1.17 ± 0.16.
On to `CC(C)(O)CNc1nc(Nc2ccnc(C(F)(F)F)c2)nc(-c2cccc(C(F)(F)F)n2)n1` [Enasidenib (AG-221)], for which the IL-6-GFP fluorescence amounted to 0.776 ± 0.41.
To `CC(=O)OC1(C(C)=O)CCC2C3C=C(C)C4=CC(=O)CCC4(C)C3CCC21C` (configuration not stated) [Megestrol Acetate] belongs 0.738 ± 0.36.
For `COc1cccc2c1C(=O)c1c(O)c3c(c(O)c1C2=O)CC(O)(C(C)=O)CC3OC1CC(N)C(O)C(C)O1.Cl` (configuration not stated) [Daunorubicin HCl] the value was 0.446 ± 0.12.
`CC12C=CC(=O)C=C1CCC1C3CC(O)C(O)(C(=O)CO)C3(C)CC(O)C12F` (configuration not stated) [Triamcinolone]: the IL-6-GFP fluorescence came out at 0.932 ± 0.15.
To `C1N2CN3CN1CN(C2)C3` [Methenamine] belongs 1.56 ± 0.9.
To `C=CC(=O)Nc1cccc(Oc2nc(Nc3ccc(N4CCN(C)CC4)cc3)nc3ccsc23)c1` belongs 1 ± 0.13.
